According to patent US20230012420A1, “METHODS AND COMPOSTIONS FOR INHIBITING P97” (California Institute of Technology, priority 2021, published 2023):
At least one structure is not confirmed: it was looked up by name or label, or the drawing left a doubt.

Assays:
p97^R155H/+ MNs = assay: MN cell survival assay (Calcein AM live cell staining); format: cell-based, human; conditions: treated from 8 dpm, read at 26 dpm, vs DMSO (FIG. 4E)
Method: The maturation of MNs was followed using a 14 day protocol from BrainXell. Briefly, the MNs were thawed and plated on poly-lysine (Sigma, cat #P7886) coated plates in MN maturation medium containing DMEM/F12 (Gibco, cat #11330-032) and neurobasal medium (1:1 v/v), 2% 50× B27, 1% 100× N2, 0.25% 100× Glutamax, 10 ng/mL BDNF (Peprotech, cat #450-02), 10 ng/mL GDNF(Peprotech, cat #450-10), 1 ng/mL TGF-β1 (Peprotech, cat #100-21c), and 1× Brainfast supplement (BrainXell). The medium was changed with the same medium containing 15 μg/mL geltrex on day 1. An equal volume of maturation medium (excluding Geltrex) was added on day 4. Half of the medium (excluding the Brainfast supplement and Geltrex) was changed twice weekly from day 7. The MNs can be maintained for at least three weeks. […] NMS-873, cat #406458), or same volume of DMSO at D14, and then incubated for 6 days. The cells were harvested on D20. […] Cell viability was monitored every 3 or 4 days by staining with Calcein AM Viability Dye (Thermo, cat #65-0853-81), acquiring and analyzing images with ImageXpress Micro Confocal High-Content Imaging System (Molecular Devices). […] Cell viability was monitored at day 1 and day 14. […]

iso p97^R155H/+ MNs = assay: MN cell survival assay (live cell staining), isogenic mutant line; format: cell-based, human; conditions: treated from 8 dpm, read at 26 dpm, vs DMSO (FIG. 4F)
Method: To compare p97 WT and […]/+ cells, MNs were thawed and plated on poly-lysine coated 96-well plates (Greiner, cat #655090) at a density of 1000 cells per 100 μL per well in MN maturation medium as described in the “motor neuron differentiation and maturation” section. Medium was changed with 100 μL of the same medium containing 15 μg/mL geltrex on day 1. 100 μL additional medium (excluding Geltrex) was added on day 4. Half of the medium (excluding the Brainfast supplement and Geltrex) was changed on day 7 and 11. 200 nM Ara-C was added to inhibit non-MN cells from proliferating. On day 14, the medium was replaced with N2 medium (DMEM/F12 and neurobasal medium, 1:1 v/v, 1% 100× N2). N2 medium was changed every six days. Cell viability was monitored every 3 or 4 days by staining with Calcein AM Viability Dye (Thermo, cat #65-0853-81), acquiring and analyzing images with ImageXpress Micro Confocal High-Content Imaging System (Molecular Devices). For p97 inhibitor treatment, MNs were plated on poly-lysine coated 384-well plates (Greiner, cat #781946) at a density of 500 cells per 30 μL per well. The same medium was used for plating and maintaining cells. Cell viability was monitored at day 1 and day 14. […]

Measured: viability of MNs (viable cells by live cell staining)

CCN1CCN(Cc2ccc(Nc3ncc(F)c(-c4cc(F)c5nc(C)n(C(C)C)c5c4)n3)nc2)CC1 [abemaciclib]
improved the viability: p97^R155H/+ MNs; 200 nM | p97^R155H/+ MNs; 400 nM | iso p97^R155H/+ MNs; 200 nM | iso p97^R155H/+ MNs; 400 nM
